Measured values: patent publication US20240131173

By UniProt entry, the sequences of proteins in these tests, tags left out. Where a name states a change or a piece, a line headed by the entry shows the natural chain unless it says otherwise.
UniProt Q01094: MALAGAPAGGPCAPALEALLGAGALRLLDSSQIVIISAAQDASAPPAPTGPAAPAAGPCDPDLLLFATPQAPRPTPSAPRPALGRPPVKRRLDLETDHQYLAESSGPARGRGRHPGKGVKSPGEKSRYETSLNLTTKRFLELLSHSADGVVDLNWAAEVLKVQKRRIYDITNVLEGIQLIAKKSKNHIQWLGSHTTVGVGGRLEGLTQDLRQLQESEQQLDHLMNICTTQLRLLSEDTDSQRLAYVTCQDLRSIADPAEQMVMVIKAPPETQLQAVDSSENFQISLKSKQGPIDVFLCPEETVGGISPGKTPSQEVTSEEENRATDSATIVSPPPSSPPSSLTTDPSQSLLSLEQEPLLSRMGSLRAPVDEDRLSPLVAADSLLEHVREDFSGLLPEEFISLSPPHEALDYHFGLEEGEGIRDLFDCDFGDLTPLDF
UniProt Q04206, whole entry: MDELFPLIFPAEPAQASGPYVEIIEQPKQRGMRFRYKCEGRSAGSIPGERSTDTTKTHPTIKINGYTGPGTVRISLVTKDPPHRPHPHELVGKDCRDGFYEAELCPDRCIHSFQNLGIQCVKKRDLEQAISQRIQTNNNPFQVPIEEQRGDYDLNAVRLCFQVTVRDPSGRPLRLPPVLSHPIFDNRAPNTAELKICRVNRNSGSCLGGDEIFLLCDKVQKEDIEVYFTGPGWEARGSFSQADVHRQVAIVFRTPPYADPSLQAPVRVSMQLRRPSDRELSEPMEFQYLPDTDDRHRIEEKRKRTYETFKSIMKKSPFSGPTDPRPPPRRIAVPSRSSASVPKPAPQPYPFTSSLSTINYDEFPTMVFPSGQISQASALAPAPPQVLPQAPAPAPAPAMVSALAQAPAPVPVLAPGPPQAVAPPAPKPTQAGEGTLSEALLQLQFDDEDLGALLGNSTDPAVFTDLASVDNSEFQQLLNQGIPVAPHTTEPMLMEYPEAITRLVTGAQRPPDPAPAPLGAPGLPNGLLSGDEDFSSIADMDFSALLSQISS

What was measured:
E2F1 [1] = molecular target: E2F1 (UniProt Q01094); assay: pull-down; conditions: protein in a lysate after overexpression, protein details: HA, expressed in HEK293T
[2] = molecular target: p65 (RelA, NF-kB subunit) (UniProt Q04206); assay: competition with a labelled probe; conditions: protein in a lysate after overexpression, protein details: Flag, expressed in HEK293T, folded or branched DNA
[3] = molecular target: p65 (RelA, NF-kB subunit) (UniProt Q04206); assay: pull-down; conditions: protein in a lysate after overexpression, protein details: Flag, expressed in HEK293T, folded or branched DNA
E2F1 [4] = molecular target: E2F1 (UniProt Q01094); assay: competition with a labelled probe; conditions: protein in a lysate after overexpression, protein details: HA, expressed in HEK293T

“CTAGATTTCCCGCG / CTAGCGCGGGAAAT [dE2F #15, #16, #17]”: binds (E2F1 [1]; 5' VHL ligand (VHLL-BCN #15, #16 or #17) on sense strand by SPAAC, ternary complex with GST-VHL complex, #16 and #17 degrade E2F1 in HeLa, variant of N3-E2F-ODN).
“TGGGGACTTTCCAGTTTCTGGAAAGTCCCCA [dNF-kB #1]”: binds ([2]; 5' VHL ligand (VHLL-BCN #1) conjugated by SPAAC, competes with Biotin-NF-kB-ODN, also bridges p65 and GST-VHL complex in pulldown, variant of N3-NF-kB-ODN).
“CTAGATTTCCCGCG / CTAGCGCGGGAAAT [Biotin-E2F-ODN]”: binds (E2F1 [1]; 5' biotin on sense strand, streptavidin pulldown from lysate, EBC buffer, 4 C, text prints antisense as SEQ 7, label: biotin).
“TGGGGACTTTCCAGTTTCTGGAAAGTCCCCA [NF-kB-ODN]”: binds ([2]; excess competes with Biotin-NF-kB-ODN).
“TGGGGACTTTCCAGTTTCTGGAAAGTCCCCA [dNF-kB #4, #7, #15, #16, #18]”: binds ([3]; 5' VHL ligand (VHLL-BCN #4, #7, #15, #16 or #18) conjugated by SPAAC, variant of N3-NF-kB-ODN).
“TGGGGACTTTCCAGTTTCTGGAAAGTCCCCA [N3-NF-kB-ODN]”: binds ([2]; 5' azide via amino modifier C6, excess competes with Biotin-NF-kB-ODN, azide does not affect binding, variant of NF-kB-ODN).
“CTAGATTTCCCGCG / CTAGCGCGGGAAAT [E2F-ODN]”: binds (E2F1 [4]; competes with Biotin-E2F-ODN).
“CTAGATTTCCCGCG / CTAGCGCGGGAAAT [N3-E2F-ODN]”: binds (E2F1 [4]; 5' azide on sense strand, binds as efficiently as E2F-ODN, variant of E2F-ODN).
“TGGGGACTTTCCAGTTTCTGGAAAGTCCCCA [Biotin-NF-kB-ODN]”: binds ([3]; 5' biotin via NH2-(CH2)2-O-(CH2)2-OH spacer, streptavidin pulldown from lysate, EBC buffer, 4 C, label: biotin).

Results from cells or extracts need not show a direct contact. For part of these data: For at least one entry, the source does not settle the construct or the ends of the probe.
